The list shows only some results of the screen, not a fair sample: it is rich in T/C values a quarter to a half above the control, in often repeated tests (any T/C) and in doses without a T/C. Other doses and runs of a compound stand elsewhere. T/C: endpoint of the treated group in % of that of the vehicle group. Where survival is the endpoint, this PubChem deposit counts one and a half times the control or more as active, and values a quarter to a half above the control carry no call in these data; other NCI protocols may use other cut-offs. Schedule codes are those of the source, taken here to give the interval after Q, in days (D) or hours (H), and the number of doses after X. Counts like (3×) count equal records among those shown. Some entries hold several experiments; the values are given in rising order. Some schedule codes hold Z or #, which are not explained here.
Tested on: L1210 leukemia ip in BDF1 mice, survival T/C
Assay: NCI In Vivo Anticancer Drug Screen. Data for tumor model L1210 Leukemia (intraperitoneal) in B6D2F1 (BDF1) mice
Settings: T/C endpoint: median survival time, higher T/C = longer survival

CN(C)/N=N/c1nc[nH]c1C(N)=O
T/C (dose: 39.0 mg/kg/injection, schedule: Q01DX Z (ip), vehicle: steroid suspending solution): 127 % of control
T/C (dose: 50.0 mg/kg/injection, schedule: Q01DX017 (ip), vehicle: steroid suspending solution, evaluated on day 5): 118 % of control
T/C (dose: 50.0 mg/kg/injection, schedule: Q01DX017 (ip), vehicle: steroid suspending solution, evaluated on day 30): 118 % of control
T/C (dose: 50.0 mg/kg/injection, schedule: Q01DX017 (ip), vehicle: steroid suspending solution, evaluated on day 40): 133 % of control
T/C (dose: 50.0 mg/kg/injection, schedule: Q01DX017 (ip), vehicle: steroid suspending solution, evaluated on day 50): 122 % of control
T/C (dose: 50.0 mg/kg/injection, schedule: Q01DX017 (ip), vehicle: steroid suspending solution, evaluated on day 54): 105, 122, 125 % of control
T/C (dose: 50.0 mg/kg/injection, schedule: Q01DX017 (ip), vehicle: steroid suspending solution, evaluated on day 60): 133 % of control
T/C (dose: 50.0 mg/kg/injection, schedule: Q01DX017 (ip), vehicle: steroid suspending solution, evaluated on day 69): 111 % of control
T/C (dose: 65.0 mg/kg/injection, schedule: Q01DX009 (ip), vehicle: steroid suspending solution): 140 % of control
T/C (dose: 65.0 mg/kg/injection, schedule: Q01DX033 (ip), vehicle: other): 130 % of control
T/C (dose: 65.0 mg/kg/injection, schedule: Q01DX Z (ip), vehicle: steroid suspending solution): 133 % of control
T/C (dose: 100.0 mg/kg/injection, schedule: Q01DX009 (ip), vehicle: Klucel (hydroxypropylcellulose) (HPC), evaluated on day 24): 150 % of control
T/C (dose: 100.0 mg/kg/injection, schedule: Q01DX009 (ip), vehicle: Klucel (hydroxypropylcellulose) (HPC), evaluated on day 26): 130 % of control
T/C (dose: 100.0 mg/kg/injection, schedule: Q01DX009 (ip), vehicle: Klucel (hydroxypropylcellulose) (HPC), evaluated on day 30): 122 % of control (2×)
T/C (dose: 100.0 mg/kg/injection, schedule: Q01DX009 (ip), vehicle: Klucel (hydroxypropylcellulose) (HPC), evaluated on day 40): 133 % of control
T/C (dose: 100.0 mg/kg/injection, schedule: Q01DX017 (ip), vehicle: steroid suspending solution, evaluated on day 5): 136 % of control
T/C (dose: 100.0 mg/kg/injection, schedule: Q01DX017 (ip), vehicle: steroid suspending solution, evaluated on day 30): 122 and 136 % of control
T/C (dose: 100.0 mg/kg/injection, schedule: Q01DX017 (ip), vehicle: steroid suspending solution, evaluated on day 40): 144 % of control
T/C (dose: 100.0 mg/kg/injection, schedule: Q01DX017 (ip), vehicle: steroid suspending solution, evaluated on day 45): 144 % of control
T/C (dose: 100.0 mg/kg/injection, schedule: Q01DX017 (ip), vehicle: steroid suspending solution, evaluated on day 50): 116 and 133 % of control
T/C (dose: 100.0 mg/kg/injection, schedule: Q01DX017 (ip), vehicle: steroid suspending solution, evaluated on day 54): 116, 125, 127 % of control
T/C (dose: 100.0 mg/kg/injection, schedule: Q01DX017 (ip), vehicle: steroid suspending solution, evaluated on day 60): 127 % of control
T/C (dose: 100.0 mg/kg/injection, schedule: Q01DX017 (ip), vehicle: steroid suspending solution, evaluated on day 69): 116 % of control
T/C (dose: 100.0 mg/kg/injection, schedule: Q## X017 (ip), vehicle: steroid suspending solution): 136 % of control
T/C (dose: 108.0 mg/kg/injection, schedule: Q01DX009 (ip), vehicle: Klucel (hydroxypropylcellulose) (HPC), evaluated on day 5): 134 and 158 % of control
T/C (dose: 108.0 mg/kg/injection, schedule: Q01DX009 (ip), vehicle: Klucel (hydroxypropylcellulose) (HPC), evaluated on day 27): 158 % of control
T/C (dose: 108.0 mg/kg/injection, schedule: Q01DX009 (ip), vehicle: Klucel (hydroxypropylcellulose) (HPC), evaluated on day 30): 110, 136, 140 % of control
T/C (dose: 108.0 mg/kg/injection, schedule: Q01DX009 (ip), vehicle: Klucel (hydroxypropylcellulose) (HPC), evaluated on day 33): 111 % of control
T/C (dose: 108.0 mg/kg/injection, schedule: Q01DX015 (ip), vehicle: Klucel (hydroxypropylcellulose) (HPC), evaluated on day 5): 107 and 117 % of control
T/C (dose: 108.0 mg/kg/injection, schedule: Q01DX015 (ip), vehicle: Klucel (hydroxypropylcellulose) (HPC), evaluated on day 7): 123 % of control
T/C (dose: 108.0 mg/kg/injection, schedule: Q01DX015 (ip), vehicle: Klucel (hydroxypropylcellulose) (HPC), evaluated on day 20): 123 % of control
T/C (dose: 108.0 mg/kg/injection, schedule: Q01DX015 (ip), vehicle: Klucel (hydroxypropylcellulose) (HPC), evaluated on day 33): 110 % of control
T/C (dose: 108.0 mg/kg/injection, schedule: Q01DX015 (ip), vehicle: Klucel (hydroxypropylcellulose) (HPC), evaluated on day 38): 122 % of control
T/C (dose: 108.0 mg/kg/injection, schedule: Q01DX017 (ip), vehicle: Klucel (hydroxypropylcellulose) (HPC), evaluated on day 5): 116 and 128 % of control
T/C (dose: 108.0 mg/kg/injection, schedule: Q01DX017 (ip), vehicle: Klucel (hydroxypropylcellulose) (HPC), evaluated on day 33): 130 % of control
T/C (dose: 108.0 mg/kg/injection, schedule: Q01DX017 (ip), vehicle: Klucel (hydroxypropylcellulose) (HPC), evaluated on day 38): 116 % of control
T/C (dose: 108.0 mg/kg/injection, schedule: Q01DX033 (ip), vehicle: other): 136 % of control
T/C (dose: 108.0 mg/kg/injection, schedule: Q01DX Z (ip), vehicle: steroid suspending solution): 138 % of control
T/C (dose: 160.0 mg/kg/injection, schedule: Q01DX009 (ip), vehicle: Klucel (hydroxypropylcellulose) (HPC)): 128 % of control
T/C (dose: 180.0 mg/kg/injection, schedule: Q01DX009 (ip), vehicle: Klucel (hydroxypropylcellulose) (HPC), evaluated on day 5): 151 and 168 % of control
T/C (dose: 180.0 mg/kg/injection, schedule: Q01DX009 (ip), vehicle: Klucel (hydroxypropylcellulose) (HPC), evaluated on day 27): 168 % of control

Source: PubChem BioAssay AID248 (DTP/NCI, 2004)
